Test results published in article PMC6316740.
These are yes or no findings as the source states them, for the method shown. Binding seen in cells or lysates may run through a third protein. Some entries that bind do so weakly or less than the wild type.

The chains behind the UniProt entries cited, without tags or fusion partners.
UniProt P63027: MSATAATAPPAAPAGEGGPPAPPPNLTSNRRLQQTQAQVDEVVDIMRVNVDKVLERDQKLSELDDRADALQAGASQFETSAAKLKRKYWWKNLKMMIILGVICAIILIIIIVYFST
UniProt P08247: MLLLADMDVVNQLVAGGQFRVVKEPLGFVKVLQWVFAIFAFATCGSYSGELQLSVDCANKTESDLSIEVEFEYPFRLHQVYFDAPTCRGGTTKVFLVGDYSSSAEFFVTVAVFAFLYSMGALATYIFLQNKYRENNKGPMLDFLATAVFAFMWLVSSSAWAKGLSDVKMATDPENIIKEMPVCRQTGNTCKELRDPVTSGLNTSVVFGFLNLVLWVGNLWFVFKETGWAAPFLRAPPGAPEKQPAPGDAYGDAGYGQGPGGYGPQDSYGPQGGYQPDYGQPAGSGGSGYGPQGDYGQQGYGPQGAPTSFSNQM

Target: synaptobrevin-2/VAMP-2 (human (endogenous in SH-SY5Y)) (UniProt P63027)
Assay: co-IP; endogenous proteins of SH-SY5Y cells; samples incubated with rabbit anti-VAMP-2, mouse anti-α-Syn or mouse anti-synaptophysin antibody at 4 °C overnight, collected on immunomagnetic beads in binding buffer (50 mM Tris, 150 mM NaCl, 0.2% Triton-100; pH 7.5), blotted; normal, LV-α-Syn shRNA and LV-negative shRNA cells, 0 or 100 μM Mn for 24 h

Which binding does the source give for “synaptophysin (from UniProt P08247 1-313)” here?
The binding was “binds”.
